Data reported in PMC3841161 (PLoS ONE, 2013).
Some peptides are written in HELM: one residue between dots, names in brackets for other building blocks, links after the first $.

Test: general procedure: Fmoc solid-phase peptide synthesis; Rink amide MBHA resin, initial loading 0.61 mmol/g; DCC, HBTU, HOBT, DIEA (listed as peptide synthesis reagents)
Conditions: whole synthesis, RP-HPLC on analytical Vydac C18 column

Q: Which “crude HPLC purity” value does the source give for PEPTIDE1{W.R.W.R.W.R.[am]}$$$$V2.0 here?
A: The value was 95%.

Q: For PEPTIDE1{W.R.W.R.[am]}$$$$V2.0, which “crude HPLC purity” value is on record?
A: Its value is 95%.
